Results as given in article PMC11189495.
These are yes or no findings as the source states them, for the method shown. In cells and extracts the contact can be indirect. Some results given as binding are weak or reduced against the parent protein; the word gives no strength.

By UniProt entry, the sequences of proteins in these tests, tags left out. Residues count along the entry.
UniProt O43699, residues 27-453: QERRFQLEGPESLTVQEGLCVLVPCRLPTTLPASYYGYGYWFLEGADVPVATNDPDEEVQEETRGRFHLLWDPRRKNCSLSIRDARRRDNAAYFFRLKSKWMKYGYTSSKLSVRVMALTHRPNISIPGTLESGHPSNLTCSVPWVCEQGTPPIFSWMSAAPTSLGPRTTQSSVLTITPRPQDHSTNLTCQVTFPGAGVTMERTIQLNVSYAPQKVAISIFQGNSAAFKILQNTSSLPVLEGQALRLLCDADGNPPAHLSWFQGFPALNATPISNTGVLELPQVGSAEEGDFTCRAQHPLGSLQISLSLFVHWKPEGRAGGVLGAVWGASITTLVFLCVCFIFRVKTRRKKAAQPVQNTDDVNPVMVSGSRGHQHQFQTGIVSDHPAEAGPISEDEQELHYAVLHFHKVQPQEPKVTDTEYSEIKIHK
UniProt P60953: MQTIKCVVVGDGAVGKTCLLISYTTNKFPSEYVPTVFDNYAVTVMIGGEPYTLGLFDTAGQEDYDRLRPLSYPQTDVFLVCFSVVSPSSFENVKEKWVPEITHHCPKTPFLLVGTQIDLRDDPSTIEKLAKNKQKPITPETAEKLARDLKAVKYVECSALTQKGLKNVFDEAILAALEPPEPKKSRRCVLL
UniProt Q8NF50: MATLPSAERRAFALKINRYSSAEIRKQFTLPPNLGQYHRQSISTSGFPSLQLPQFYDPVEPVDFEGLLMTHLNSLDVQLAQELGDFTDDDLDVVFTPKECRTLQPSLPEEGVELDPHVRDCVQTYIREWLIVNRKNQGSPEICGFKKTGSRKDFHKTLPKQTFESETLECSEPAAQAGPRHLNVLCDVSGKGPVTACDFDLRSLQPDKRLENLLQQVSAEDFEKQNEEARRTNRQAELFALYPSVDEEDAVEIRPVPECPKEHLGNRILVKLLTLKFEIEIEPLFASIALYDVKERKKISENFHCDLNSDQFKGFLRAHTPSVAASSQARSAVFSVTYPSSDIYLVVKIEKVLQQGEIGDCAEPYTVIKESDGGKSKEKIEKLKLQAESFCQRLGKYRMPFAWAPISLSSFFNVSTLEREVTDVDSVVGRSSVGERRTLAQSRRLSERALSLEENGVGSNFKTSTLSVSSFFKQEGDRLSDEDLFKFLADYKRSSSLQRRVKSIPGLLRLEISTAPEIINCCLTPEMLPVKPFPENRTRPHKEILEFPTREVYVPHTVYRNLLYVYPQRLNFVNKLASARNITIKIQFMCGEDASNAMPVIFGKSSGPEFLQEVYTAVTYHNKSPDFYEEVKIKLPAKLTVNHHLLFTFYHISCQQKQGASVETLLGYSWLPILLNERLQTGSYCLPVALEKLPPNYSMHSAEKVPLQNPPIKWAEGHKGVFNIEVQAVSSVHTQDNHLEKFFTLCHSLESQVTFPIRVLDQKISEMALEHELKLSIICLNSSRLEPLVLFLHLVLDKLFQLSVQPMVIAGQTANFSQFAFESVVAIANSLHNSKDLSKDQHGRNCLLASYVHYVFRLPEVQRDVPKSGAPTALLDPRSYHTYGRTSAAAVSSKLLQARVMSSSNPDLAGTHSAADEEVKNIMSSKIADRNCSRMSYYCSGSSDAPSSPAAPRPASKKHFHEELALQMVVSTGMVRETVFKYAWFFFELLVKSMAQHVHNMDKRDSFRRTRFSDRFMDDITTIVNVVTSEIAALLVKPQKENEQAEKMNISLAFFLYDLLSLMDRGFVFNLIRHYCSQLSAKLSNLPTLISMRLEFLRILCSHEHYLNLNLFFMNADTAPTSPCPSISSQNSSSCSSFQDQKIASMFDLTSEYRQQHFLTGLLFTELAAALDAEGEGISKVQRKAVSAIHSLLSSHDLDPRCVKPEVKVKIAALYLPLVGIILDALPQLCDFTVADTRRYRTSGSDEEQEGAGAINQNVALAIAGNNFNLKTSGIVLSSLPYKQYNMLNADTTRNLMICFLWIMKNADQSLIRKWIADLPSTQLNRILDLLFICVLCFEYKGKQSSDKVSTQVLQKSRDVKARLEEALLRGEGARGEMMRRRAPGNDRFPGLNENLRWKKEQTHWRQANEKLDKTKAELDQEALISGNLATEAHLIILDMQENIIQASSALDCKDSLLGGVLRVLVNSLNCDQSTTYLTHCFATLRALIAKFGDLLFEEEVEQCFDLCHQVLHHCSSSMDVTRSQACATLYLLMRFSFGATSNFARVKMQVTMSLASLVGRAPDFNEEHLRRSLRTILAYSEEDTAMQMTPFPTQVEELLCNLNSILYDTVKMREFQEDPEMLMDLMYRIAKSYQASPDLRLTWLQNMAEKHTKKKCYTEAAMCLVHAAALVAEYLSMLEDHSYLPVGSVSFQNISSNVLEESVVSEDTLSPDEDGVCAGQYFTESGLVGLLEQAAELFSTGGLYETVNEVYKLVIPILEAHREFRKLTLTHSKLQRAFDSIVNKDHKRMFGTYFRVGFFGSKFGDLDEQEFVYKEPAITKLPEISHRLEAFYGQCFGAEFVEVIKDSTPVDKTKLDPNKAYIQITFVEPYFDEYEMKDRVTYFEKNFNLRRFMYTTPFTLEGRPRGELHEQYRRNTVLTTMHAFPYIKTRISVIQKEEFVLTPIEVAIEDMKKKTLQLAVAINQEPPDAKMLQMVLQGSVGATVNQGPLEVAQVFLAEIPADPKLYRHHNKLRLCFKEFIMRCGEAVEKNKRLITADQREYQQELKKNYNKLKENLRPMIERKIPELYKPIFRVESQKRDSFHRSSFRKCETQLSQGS
UniProt P42768: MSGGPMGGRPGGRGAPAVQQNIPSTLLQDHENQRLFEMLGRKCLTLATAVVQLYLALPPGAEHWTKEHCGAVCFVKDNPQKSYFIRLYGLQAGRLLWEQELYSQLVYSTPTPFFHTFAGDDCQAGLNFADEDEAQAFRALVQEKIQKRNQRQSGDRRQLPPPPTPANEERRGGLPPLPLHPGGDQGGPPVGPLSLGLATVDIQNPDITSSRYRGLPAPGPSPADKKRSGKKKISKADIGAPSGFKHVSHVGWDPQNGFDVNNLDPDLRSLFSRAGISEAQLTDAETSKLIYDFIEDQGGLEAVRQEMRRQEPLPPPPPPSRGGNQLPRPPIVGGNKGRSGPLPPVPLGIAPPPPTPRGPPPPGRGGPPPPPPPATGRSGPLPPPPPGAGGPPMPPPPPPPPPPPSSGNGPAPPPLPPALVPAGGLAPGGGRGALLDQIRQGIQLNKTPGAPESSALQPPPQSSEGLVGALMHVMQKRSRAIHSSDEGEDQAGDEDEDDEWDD

Columns and labels:
[1] = molecular target: Siglec-6 (human (endogenous in MEC1-002 and primary B-CLL cells)) (UniProt O43699); experiment: co-IP; lysates of MEC1-002 or primary CD19+ CD5+ B-CLL cells (3 patients); Dynabeads Protein G kit; anti-human Siglec-6 antibody (clone 2G6) or mouse IgG2b isotype control; immunoblot with DOCK8 antibody (EPR1251)
[2] = molecular target: GTP-bound Cdc42 (human (endogenous in MEC1-002)) (UniProt P60953); experiment: pull-down; Cdc42 activation assay kit (Abcam, ab211163) used to pull down GTP-bound Cdc42 from MEC1-002 cells treated with 6 ug sTn for 1 min; GTP-Cdc42 and WASP detected by immunoblot; also cells blocked with 10 ug anti-Siglec-6 mAb JML-1 for 30 min, Siglec-6 KO and DOCK8 KO cells

| binding [1] | binding [2] | Substance |
| --- | --- | --- |
| binds | – | DOCK8 (from UniProt Q8NF50 1-2099) |
| – | binds | WASP protein (from UniProt P42768 1-502) |
